Data source: PubChem BioAssay AID1053208 (Peter MacCallum Cancer Centre, 2014)

Assay: 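Find knock-downs that sensitise mouse osteosarcoma cells to doxorubicin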 (primary screen)
System: mouse osteosarcoma cells, early-passage culture from an engineered mouse model of fibroblastic bone tumour
Reagents: siRNA pool against mouse genes, 40 nM
Time to read-out: about 120 h (48 h before drug, then 72 h with drug)
Challenge: doxorubicin 100 nM for 72 h, roughly 30-40% inhibitory dose
Detection: 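Luminescent ATP signal taken as viability with or without 100 nM doxorubicin for 72 h; mean of two wells set against non-targeting siRNA and turned into robust z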
Direction: viability z-score with doxorubicin: higher = more viable cells under doxorubicin; viability z-score without drug: higher = more viable cells with knock-down alone
Call rule: 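a pool counts as active when its viability z-score with doxorubicin is -2 or below and its z-score without drug lies between -2 and 2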
In all, the deposit lists about 17,000 reagents; below is an unselected part. Over the whole deposit, 788 (4.7%) were called active. 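Calls rest on z-score classes alone; an extra cut-off of viability at most 70% of control was not applied to them.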 The numbers tell different reagents against one gene apart. Further read-outs or replicates are left out here.

{"gene knocked down": "Ergic2", "reagent no.": 1, "combined z-score class": "no change with or without drug", "viability z-score with doxorubicin": -0.22, "viability z-score without drug": 0.67, "outcome": "inactive"}
{"gene knocked down": "Desi2", "reagent no.": 1, "combined z-score class": "low cell count with doxorubicin only", "viability z-score with doxorubicin": -2.02, "viability z-score without drug": 0, "outcome": "active"}
{"gene knocked down": "Traf4", "reagent no.": 1, "combined z-score class": "no change with or without drug", "viability z-score with doxorubicin": -1.35, "viability z-score without drug": -0.17, "outcome": "inactive"}
{"gene knocked down": "Nup50", "reagent no.": 1, "combined z-score class": "no change with or without drug", "viability z-score with doxorubicin": 0.45, "viability z-score without drug": -0.17, "outcome": "inactive"}
{"gene knocked down": "Chrdl2", "reagent no.": 1, "combined z-score class": "no change with or without drug", "viability z-score with doxorubicin": -1.12, "viability z-score without drug": 1.18, "outcome": "inactive"}
{"gene knocked down": "Fjx1", "reagent no.": 1, "combined z-score class": "no change with or without drug", "viability z-score with doxorubicin": -0.56, "viability z-score without drug": -0.17, "outcome": "inactive"}
{"gene knocked down": "Aqp9", "reagent no.": 1, "combined z-score class": "no change with or without drug", "viability z-score with doxorubicin": -0.22, "viability z-score without drug": -1.52, "outcome": "inactive"}
{"gene knocked down": "Trim52", "reagent no.": 1, "combined z-score class": "no change with or without drug", "viability z-score with doxorubicin": -1.69, "viability z-score without drug": -1.35, "outcome": "inactive"}

Records listed above marked active, once more:
{"gene knocked down": "Desi2", "reagent no.": 1, "combined z-score class": "low cell count with doxorubicin only", "viability z-score with doxorubicin": -2.02, "viability z-score without drug": 0, "outcome": "active"}

The results go on.
{"gene knocked down": "Gcsam", "reagent no.": 1, "combined z-score class": "no change with or without drug", "viability z-score with doxorubicin": -0.45, "viability z-score without drug": 1.01, "outcome": "inactive"}
{"gene knocked down": "Xkr8", "reagent no.": 1, "combined z-score class": "high cell count without drug only", "viability z-score with doxorubicin": 1.35, "viability z-score without drug": 3.04, "outcome": "inactive"}
{"gene knocked down": "Rbm17", "reagent no.": 1, "combined z-score class": "low cell count with doxorubicin only", "viability z-score with doxorubicin": -3.82, "viability z-score without drug": -1.52, "outcome": "active"}
{"gene knocked down": "Abraxas1", "reagent no.": 1, "combined z-score class": "no change with or without drug", "viability z-score with doxorubicin": 1.35, "viability z-score without drug": 0.51, "outcome": "inactive"}
{"gene knocked down": "Abraxas1", "reagent no.": 2, "combined z-score class": "low cell count with doxorubicin only", "viability z-score with doxorubicin": -2.02, "viability z-score without drug": -0.84, "outcome": "active"}
{"gene knocked down": "Pdzrn3", "reagent no.": 1, "combined z-score class": "low cell count with doxorubicin only", "viability z-score with doxorubicin": -2.59, "viability z-score without drug": -1.52, "outcome": "active"}
{"gene knocked down": "Hgfac", "reagent no.": 1, "combined z-score class": "no change with or without drug", "viability z-score with doxorubicin": -0.56, "viability z-score without drug": 1.18, "outcome": "inactive"}
{"gene knocked down": "Xrn2", "reagent no.": 1, "combined z-score class": "no change with or without drug", "viability z-score with doxorubicin": 1.91, "viability z-score without drug": 0.84, "outcome": "inactive"}
{"gene knocked down": "Sprr2k", "reagent no.": 1, "combined z-score class": "no change with or without drug", "viability z-score with doxorubicin": 1.35, "viability z-score without drug": -0.34, "outcome": "inactive"}
{"gene knocked down": "Taf7l", "reagent no.": 1, "combined z-score class": "no change with or without drug", "viability z-score with doxorubicin": -0.9, "viability z-score without drug": -0.17, "outcome": "inactive"}
{"gene knocked down": "Atg10", "reagent no.": 1, "combined z-score class": "no change with or without drug", "viability z-score with doxorubicin": -1.69, "viability z-score without drug": -0.84, "outcome": "inactive"}
